Data taken from patent US20220073609A1 (DENALI THERAPEUTICS, published 2022).
Positions count from the first letter of the chain named. Results are given in words; binding and its absence hold for the method and conditions named. Some results given as binding are weak or reduced against the parent protein; the word gives no strength. Each block holds one binder with its values, some of them ahead of it. No end group written: not given here.

How the values were obtained:
[1] = target: T1, sTREM2 in human CSF (human) (UniProt Q9NZC2); experiment: MSD assay on CSF
T1 sequence: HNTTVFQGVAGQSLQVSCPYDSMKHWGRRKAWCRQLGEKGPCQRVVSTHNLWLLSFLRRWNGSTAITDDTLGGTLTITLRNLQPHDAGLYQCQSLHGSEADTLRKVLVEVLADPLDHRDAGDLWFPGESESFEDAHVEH

[2] = target: sTREM2 in cynomolgus CSF (cynomolgus monkey); experiment: MSD assay on CSF
[3] = target: recombinant cynomolgus TREM2 ECD (cynomolgus); experiment: SPR (Biacore)
[4] = target: T2, sTREM2 in plasma of hTREM2 knock in mice (human) (UniProt Q9NZC2); experiment: MSD immunoassay of plasma of huTrem2 KI/KI mice 24 h after 100 mg/kg i.v. antibody: capture by anti-TREM2 antibody, detection by sulfo-tagged anti-human antibody, normalised to the pre-dose baseline
T2 sequence (soluble receptor ectodomain, looked up): T1 sequence

B3: CL0020123-5 (antibody, V domains shown)
VH: QVQLVQSGAEVKKPGASVKVSCKASGFSIEDFYIHWVRQAPGQGLEWMGWIDPEQGESKYAPKFQGRATITADTSTSTAYMELSSLRSEDTAVYYCHADHGNYGSTMDYWGQGTLVTVSS
VL: DIQMTQSPSSLSASVGDRVTITCHASQHINVWLSWYQQKPGKAPKLLIYKASNLHTGVPSRFSGSGSGTDFTLTISSLQPEDFATYYCQQGQTYPRTFGQGTKVEIK
notes: Humanized variant of CL0020123
binding [1]: binds

B4: CL0020123-7 (antibody, V domains shown)
VH: B3 VH with Q55N, A68V
VL: B3 VL
notes: as for B3
binding [1]: binds

B5: CL0020188 (antibody, V domains shown)
VH: EVKLLDSGGGLVQAGGSLRLSCAGSGFTFTDFYMSWIRQPPGKAPEWLGVIRNKANGYTAGYNPSVKGRFTISRDNTQNILYLQMNTLRAEDTAIYYCARLTYGFDYWGQGVMVTVSS
VL: DIVMTQGALPNPVPSGESASITCQSSKSLLHSNGKTYLNWYLQRPGQSPQLLIYWMSTRASGVSDRFSGSGSGTDFTLKISSVEAEDVGVYYCQQFLEYPFTFGSGTKLEIK
notes: also called Clone CL0020188
binding [4]: binds

The next lines start with the values.

binding [1]: binds
binding [2]: binds
binding [3]: binds
B1: CL0020188-4 (antibody, V domains shown)
VH: EVQLVESGGGLVQPGGSLRLSCAGSGFTFTDFYMSWVRQAPGKGPEWLSVIRNKANGYTAGYNPSVKGRFTISRDNSKNTLYLQMNSLRAEDTAVYYCARLTYGFDYWGQGTLVTVSS
VL: DIVMTQTPLSLPVTPGEPASISCQSSKSLLHSTGKTYLNWYLQKPGQSPQLLIYWMSTRASGVPDRFSGSGSGTDFTLKISRVEAEDVGVYYCQQFLEYPFTFGQGTKVEIK
notes: Humanized variant of CL0020188

binding [1]: binds
binding [2]: binds
binding [3]: binds
B2: CL0020188-7 (antibody, V domains shown)
VH: B1 VH with G24A, P45L, L48V, G57A
VL: B1 VL
notes: as for B1
